Test results reported in article PMC5045167, “STN1 OB Fold Mutation Alters DNA Binding and Affects Selective Aspects of CST Function”.
Changes are numbered by the printed parent chain. In names and notes the source's numbering stands. Results are given in words; binding and its absence hold for the method and conditions named. For some of these results: In cells and extracts the contact can be indirect. Some results given as binding are weak or reduced against the parent protein; the word gives no strength. Tags and fused reporters may be left off the sequences shown.

Protein sequences, listed by entry. Tags and fused reporters are not part of them.
UniProt Q96AP0: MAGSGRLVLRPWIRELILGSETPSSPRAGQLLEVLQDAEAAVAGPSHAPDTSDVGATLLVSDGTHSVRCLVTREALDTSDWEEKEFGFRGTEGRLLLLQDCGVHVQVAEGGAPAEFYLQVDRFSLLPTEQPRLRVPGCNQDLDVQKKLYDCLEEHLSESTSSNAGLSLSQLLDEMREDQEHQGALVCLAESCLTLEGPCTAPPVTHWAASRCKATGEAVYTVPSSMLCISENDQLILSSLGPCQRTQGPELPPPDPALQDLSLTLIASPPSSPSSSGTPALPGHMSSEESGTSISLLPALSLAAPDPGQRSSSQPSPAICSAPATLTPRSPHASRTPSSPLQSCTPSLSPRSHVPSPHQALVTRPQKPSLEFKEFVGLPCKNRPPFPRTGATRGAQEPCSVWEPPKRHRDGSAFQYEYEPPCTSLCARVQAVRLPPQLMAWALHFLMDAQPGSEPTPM

T1: FLAG-tagged STN1-OBM (STN1 OB-fold mutant, W89A, R139L, Y141A) (human) (UniProt Q9H668)
T1 sequence: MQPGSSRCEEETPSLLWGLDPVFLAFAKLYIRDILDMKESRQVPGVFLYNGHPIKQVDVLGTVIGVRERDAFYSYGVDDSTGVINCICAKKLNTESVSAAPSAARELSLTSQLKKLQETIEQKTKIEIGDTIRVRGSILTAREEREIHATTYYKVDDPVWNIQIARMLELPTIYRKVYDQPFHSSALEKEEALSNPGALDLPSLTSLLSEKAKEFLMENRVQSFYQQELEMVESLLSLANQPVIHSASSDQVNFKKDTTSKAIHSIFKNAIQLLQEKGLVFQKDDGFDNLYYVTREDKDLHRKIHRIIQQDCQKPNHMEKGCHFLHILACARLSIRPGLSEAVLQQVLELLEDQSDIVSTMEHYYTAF

T2: FLAG-tagged STN1 (human) (UniProt Q9H668)
T2 sequence: T1 sequence with A89W, L139R, A141Y

T3: His-tagged STN1-OBM (W89A, R139L, Y141A) (human) (UniProt Q9H668)
T3 sequence: T1 sequence

T4: His-tagged STN1 (human) (UniProt Q9H668)
T4 sequence: T1 sequence with A89W, L139R, A141Y

B1: HA-CTC1 (protein, UniProt Q2NKJ3 1-1217)
chain: MAAGRAQVPSSEQAWLEDAQVFIQKTLCPAVKEPNVQLTPLVIDCVKTVWLSQGRNQGSTLPLSYSFVSVQDLKTHQRLPCCSHLSWSSSAYQAWAQEAGPNGNPLPREQLLLLGTLTDLSADLEQECRNGSLYVRDNTGVLSCELIDLDLSWLGHLFLFPRWSYLPPARWNSSGEGHLELWDAPVPVFPLTISPGPVTPIPVLYPESASCLLRLRNKLRGVQRNLAGSLVRLSALVKSKQKAYFILSLGRSHPAVTHVSIIVQVPAQLVWHRALRPGTAYVLTELRVSKIRGQRQHVWMTSQSSRLLLLKPECVQELELELEGPLLEADPKPLPMPSNSEDKKDPESLVRYSRLLSYSGAVTGVLNEPAGLYELDGQLGLCLAYQQFRGLRRVMRPGVCLQLQDVHLLQSVGGGTRRPVLAPCLRGAVLLQSFSRQKPGAHSSRQAYGASLYEQLVWERQLGLPLYLWATKALEELACKLCPHVLRHHQFLQHSSPGSPSLGLQLLAPTLDLLAPPGSPVRNAHNEILEEPHHCPLQKYTRLQTPSSFPTLATLKEEGQRKAWASFDPKALLPLPEASYLPSCQLNRRLAWSWLCLLPSAFCPAQVLLGVLVASSHKGCLQLRDQSGSLPCLLLAKHSQPLSDPRLIGCLVRAERFQLIVERDVRSSFPSWKELSMPGFIQKQQARVYVQFFLADALILPVPRPCLHSATPSTPQTDPTGPEGPHLGQSRLFLLCHKEALMKRNFCVPPGASPEVPKPALSFYVLGSWLGGTQRKEGTGWGLPEPQGNDDNDQKVHLIFFGSSVRWFEFLHPGQVYRLIAPGPATPMLFEKDGSSCISRRPLELAGCASCLTVQDNWTLELESSQDIQDVLDANKSLPESSLTDLLSDNFTDSLVSFSAEILSRTLCEPLVASLWMKLGNTGAMRRCVKLTVALETAECEFPPHLDVYIEDPHLPPSLGLLPGARVHFSQLEKRVSRSHNVYCCFRSSTYVQVLSFPPETTISIPLPHIYLAELLQGGQSPFQATASCHIVSVFSLQLFWVCAYCTSICRQGKCTRLGSTCPTQTAISQAIIRLLVEDGTAEAVVTCRNHHVAAALGLCPREWASLLDFVQVPGRVVLQFAGPGAQLESSARVDEPMTMFLWTLCTSPSVLRPIVLSFELERKPSKIVPLEPPRLQRFQCGELPFLTHVNPRLRLSCLSIRESEYSSSLGILASSC
B2: FLAG-tagged STN1-OBM (W89A, R139L, Y141A) (protein, UniProt Q9H668 1-368)
chain: T1 sequence
B3: TEN1 (over-expressed in HeLa cell line) (protein, UniProt Q86WV5 1-123)
chain: MMLPKPGTYYLPWEVSAGQVPDGSTLRTFGRLCLYDMIQSRVTLMAQHGSDQHQVLVCTKLVEPFHAQVGSLYIVLGELQHQQDRGSVVKARVLTCVEGMNLPLLEQAIREQRLYKQERGGSQ
B4: FLAG-tagged CTC1 (protein, UniProt Q2NKJ3 1-1217)
chain: B1 chain
B5: untagged TEN1 (protein, UniProt Q86WV5 1-123)
chain: B3 chain
B6: FLAG-tagged STN1 (protein, UniProt Q9H668 1-368)
chain: T1 sequence with A89W, L139R, A141Y

Legend:
[1] = target: T1, FLAG-tagged STN1-OBM (STN1 OB-fold mutant, W89A, R139L, Y141A) (human); experiment: co-IP; STN1 or STN1-OBM immunoprecipitated from whole cell lysate of TEN1 over-expressing HeLa cells transiently transfected with HA-CTC1 and FLAG-STN1 or FLAG-STN1-OBM; Western blot
[2] = target: T2, FLAG-tagged STN1 (human); experiment: as above
[3] = target: HA-mCherry tagged TPP1 (human) (UniProt Q96AP0); experiment: co-IP; HEK293T transfected with HA-mCherry-TPP1 and FLAG-STN1 (WT or OBM); extract in 20 mM Tris pH 8.0, 100 mM NaCl, 1 mM MgCl2, 0.1% NP-40; TPP1 precipitated with HA antibody; Western blot
[4] = target: T3, His-tagged STN1-OBM (W89A, R139L, Y141A) (human); experiment: tandem affinity purification (nickel resin, then FLAG beads), silver-stained gel; SF9 cells co-infected with baculovirus for FLAG-CTC1, His-STN1 or His-STN1-OBM and TEN1; lysis and nickel washes in 500 mM NaCl, FLAG beads washed in 200 mM NaCl, eluted with 3X FLAG peptide
[5] = target: T4, His-tagged STN1 (human); experiment: as above

| Binder | binding [1] | binding [2] | binding [3] | binding [4] | binding [5] |
| --- | --- | --- | --- | --- | --- |
| B1 | binds | binds |  |  |  |
| B2 |  |  | binds |  |  |
| B3 | binds | binds |  |  |  |
| B4 |  |  |  | binds | binds |
| B5 |  |  |  | binds | binds |
| B6 |  |  | binds |  |  |
